# Several values for one entry are separate records, joined by “and”; a condition that tells them apart may be missing. Identical values can stand only once. Inconclusive means that the source gave no clear call. Such entries were picked first, then a sample of the others. Potencies of inconclusive entries are doubtful fits and often do not repeat. Activity calls are given as the source filed them. The call rests on the fitted dose curve; in most records, active means well fitted activation curve with a large enough effect; inconclusive means small, poorly fitted or top-dose-only effect, or effect the other way; inactive means flat fitted curve, though single readings scatter.
# The chains behind the UniProt entries cited, without tags or fusion partners. Where a name states a change or a piece, a line headed by the entry shows the natural chain unless it says otherwise.
# UniProt P30613: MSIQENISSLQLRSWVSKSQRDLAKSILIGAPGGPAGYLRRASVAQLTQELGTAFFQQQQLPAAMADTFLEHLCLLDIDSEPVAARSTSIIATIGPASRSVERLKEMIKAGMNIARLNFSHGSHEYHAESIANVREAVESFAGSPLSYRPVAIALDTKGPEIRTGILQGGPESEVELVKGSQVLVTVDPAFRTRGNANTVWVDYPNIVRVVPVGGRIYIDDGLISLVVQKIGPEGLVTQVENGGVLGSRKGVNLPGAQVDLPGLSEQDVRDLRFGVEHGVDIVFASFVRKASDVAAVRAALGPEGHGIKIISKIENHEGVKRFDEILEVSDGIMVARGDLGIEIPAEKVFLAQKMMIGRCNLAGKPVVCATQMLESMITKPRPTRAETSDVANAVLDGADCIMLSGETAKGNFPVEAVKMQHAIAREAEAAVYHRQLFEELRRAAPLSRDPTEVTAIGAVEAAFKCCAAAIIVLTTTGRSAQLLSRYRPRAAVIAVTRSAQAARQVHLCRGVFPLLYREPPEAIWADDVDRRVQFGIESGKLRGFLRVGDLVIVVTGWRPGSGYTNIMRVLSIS
# Target: Pyruvate kinase PKLR (Homo sapiens) (UniProt P30613)
# Test: Secondary assay for Activators of Human Reticulocyte Pyruvate Kinase
# Settings: purified hPK-R, LDH-coupled NADH fluorescence kinetic; activation: at 57.5 µM (top of the series)
# From the text: Confirmatory assay NIH Chemical Genomics Center [NCGC] Wael M. Rabeh, Lyudmila Nedyalkova and Hee-Wan Park [Structural Genomics Consortium, 100 College St. Toronto, Ontario, Canada] NCGC Assay Overview: Human pyruvate kinase reticulocyte (hPK-R) enzyme was supplied as a highly purified (>95% pure) preparation from Structural Genomics Consortium in Toronto (Ontario, Canada) and a secondary assay was used to evaluate compounds. This assay couples the formation of pyruvate from hPK-R using lactate dehydrogenase (LDH) and NADH. The depletion of NADH is followed in a fluorescent-based kinetic assay that follows the formation of pyruvate to lactate, as catalyzed LDH. Pyruvate kinase substrates, PEP and ADP, were present in the assay at 0.1 mM and 4 mM respectively. In this kinetic assay initial rates were determined by following the fluorescence of NADH depletion.
# NCGC Assay Protocol Summary: Three uL of substrate mix (final concentration, 50 mM Tris-Cl pH 8.0, 200 mM KCl, 15 mM MgCl2, 0.1 mM PEP, 4.0 mM ADP, and 0.2 mM NADH) was dispensed into black-solid 1536 well plates. 23 nL of compounds were delivered by a pin tool and 1 uL of enzyme mix (final concentrations, 10 nM hPK-R and 1 uM of LDH) was added. Plates were immediately placed in ViewLux (Perkin Elmer) and NADH fluorescence was determined at 30 second exposure intervals for between 3 and 6 minutes. Data were normalized to the uninhibited and EC100 activation using known activators such as fructose-bis-phosphate.
Compound,Potency,activation
Cc1cc2c(s1)c1cnn(Cc3cccc(F)c3F)c(=O)c1n2C,"inconclusive: 0.251 µM [rising, full curve]",
Cc1cc2c(s1)c1cnn(Cc3cccc(F)c3)c(=O)c1n2C,"inconclusive: 12.6 µM [rising, full curve, poor fit]",
Cc1cc2c(s1)c1cnn(Cc3ccccc3F)c(=O)c1n2C,"inconclusive: 2 µM [rising, full curve]",
COc1ccc(S(=O)(=O)N2CCN(S(=O)(=O)c3ccc4c(c3)OCCO4)CC2)cc1,,inconclusive: 19.6%
Cc1cc2c(s1)c1cnn(Cc3c(F)cccc3Cl)c(=O)c1n2C,"inconclusive: 0.631 µM [rising, full curve, poor fit]",
CC(O)c1cc2c(s1)c1cnn(Cc3ccccc3F)c(=O)c1n2C (configuration not stated),"inconclusive: 2.82 µM [rising, full curve]",
O=S(=O)(NCCCNS(=O)(=O)c1c(F)cccc1F)c1ccc2c(c1)OCCO2,"inconclusive: 7.08 µM [inhibitor, partial curve, poor fit]",
O=S(=O)(c1ccc2c(c1)OCCCO2)N1CCN(S(=O)(=O)c2c(F)cccc2F)CC1,"inconclusive: 14.1 µM [rising, partial curve, poor fit]",
CN1CCOc2ccc(S(=O)(=O)N3CCN(S(=O)(=O)c4c(F)cccc4F)CC3)cc21,"inconclusive: 15.8 µM [rising, partial curve, poor fit] and inconclusive: 35.5 µM [rising, partial curve, poor fit]",
C[C@H]1CN(S(=O)(=O)c2ccc3c(c2)OCCO3)CCN1S(=O)(=O)c1c(F)cccc1F,inactive,
O=S(=O)(c1ccc2c(c1)OCCO2)N1CCN(S(=O)(=O)c2cccc[n+]2[O-])CC1,,inconclusive: 21.4%
O=S(=O)(NCCCCCCNS(=O)(=O)c1c(F)cccc1F)c1ccc2c(c1)OCCO2,"inconclusive: 3.16 µM [inhibitor, full curve, poor fit]",

# — PubChem BioAssay AID1543 (National Center for Advancing Translational Sciences (NCATS), 2009)
